In test [1] the target is eIF4E (endogenous, GH3 cells) (rat (endogenous in GH3)) (UniProt P63074). The test is described as follows: pull-down; eIF4E precipitated with cap analogue m7GTP Sepharose beads from whole-cell lysates of GH3 cells transfected with the indicated dose of H19; immunoblot.
The target in test [2] is HA-Raptor (UniProt Q8N122). The test is described as follows: co-IP; HEK293 cells transfected with tagged constructs, with H19 expression; immunoblot.
For test [3], the target named is HA-Raptor (UniProt Q8N122). In words: co-IP; GH3 cells transfected with tagged constructs, with increasing H19 expression; anti-Flag or anti-HA agarose beads, 3-4 h at 4 °C; RNase treatment group as negative control; immunoblot.

Chains of the proteins cited; added tags and fusions are not shown.
UniProt P63074: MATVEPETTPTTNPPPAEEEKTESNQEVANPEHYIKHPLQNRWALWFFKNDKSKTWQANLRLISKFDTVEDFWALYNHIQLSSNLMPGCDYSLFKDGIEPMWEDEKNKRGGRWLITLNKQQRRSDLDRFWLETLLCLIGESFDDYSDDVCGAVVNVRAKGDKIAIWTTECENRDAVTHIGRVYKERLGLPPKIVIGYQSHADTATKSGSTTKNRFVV
UniProt Q8N122: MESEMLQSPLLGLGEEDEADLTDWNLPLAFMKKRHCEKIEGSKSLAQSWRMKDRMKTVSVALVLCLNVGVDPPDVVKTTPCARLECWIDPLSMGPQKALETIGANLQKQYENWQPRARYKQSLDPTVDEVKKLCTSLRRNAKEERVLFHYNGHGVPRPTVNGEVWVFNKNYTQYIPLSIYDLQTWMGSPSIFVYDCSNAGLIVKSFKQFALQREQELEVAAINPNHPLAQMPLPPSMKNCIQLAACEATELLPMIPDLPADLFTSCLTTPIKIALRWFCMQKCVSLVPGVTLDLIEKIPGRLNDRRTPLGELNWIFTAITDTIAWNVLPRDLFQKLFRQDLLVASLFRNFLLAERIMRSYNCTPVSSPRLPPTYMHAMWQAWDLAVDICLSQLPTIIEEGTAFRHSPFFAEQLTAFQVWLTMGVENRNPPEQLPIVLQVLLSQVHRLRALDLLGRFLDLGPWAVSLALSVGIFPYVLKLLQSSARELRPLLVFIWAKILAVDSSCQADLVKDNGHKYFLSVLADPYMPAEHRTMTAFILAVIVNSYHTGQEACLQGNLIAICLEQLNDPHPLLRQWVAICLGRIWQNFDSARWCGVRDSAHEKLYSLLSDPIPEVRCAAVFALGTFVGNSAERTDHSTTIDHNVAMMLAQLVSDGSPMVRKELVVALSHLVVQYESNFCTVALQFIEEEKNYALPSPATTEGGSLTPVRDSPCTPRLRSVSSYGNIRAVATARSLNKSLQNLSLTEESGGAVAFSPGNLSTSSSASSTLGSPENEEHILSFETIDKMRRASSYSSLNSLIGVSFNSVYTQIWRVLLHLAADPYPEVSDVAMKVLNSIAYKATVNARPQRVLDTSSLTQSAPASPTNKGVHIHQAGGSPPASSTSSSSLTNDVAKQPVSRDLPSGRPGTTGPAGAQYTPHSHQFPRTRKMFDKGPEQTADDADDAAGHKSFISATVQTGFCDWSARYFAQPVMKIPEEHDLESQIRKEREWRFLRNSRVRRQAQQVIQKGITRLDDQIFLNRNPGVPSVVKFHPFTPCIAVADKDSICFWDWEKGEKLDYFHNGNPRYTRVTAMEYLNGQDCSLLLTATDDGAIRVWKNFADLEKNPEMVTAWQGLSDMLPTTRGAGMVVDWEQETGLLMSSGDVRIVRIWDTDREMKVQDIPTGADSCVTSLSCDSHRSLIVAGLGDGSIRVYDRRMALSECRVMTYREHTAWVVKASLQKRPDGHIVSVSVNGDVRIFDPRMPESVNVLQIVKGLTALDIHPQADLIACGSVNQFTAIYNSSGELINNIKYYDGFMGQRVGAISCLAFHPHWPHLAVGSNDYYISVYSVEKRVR
UniProt Q62622: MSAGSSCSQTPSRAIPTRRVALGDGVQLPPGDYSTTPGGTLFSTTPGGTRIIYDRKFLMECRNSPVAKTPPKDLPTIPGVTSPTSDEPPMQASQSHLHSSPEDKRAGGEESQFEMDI
UniProt P23443: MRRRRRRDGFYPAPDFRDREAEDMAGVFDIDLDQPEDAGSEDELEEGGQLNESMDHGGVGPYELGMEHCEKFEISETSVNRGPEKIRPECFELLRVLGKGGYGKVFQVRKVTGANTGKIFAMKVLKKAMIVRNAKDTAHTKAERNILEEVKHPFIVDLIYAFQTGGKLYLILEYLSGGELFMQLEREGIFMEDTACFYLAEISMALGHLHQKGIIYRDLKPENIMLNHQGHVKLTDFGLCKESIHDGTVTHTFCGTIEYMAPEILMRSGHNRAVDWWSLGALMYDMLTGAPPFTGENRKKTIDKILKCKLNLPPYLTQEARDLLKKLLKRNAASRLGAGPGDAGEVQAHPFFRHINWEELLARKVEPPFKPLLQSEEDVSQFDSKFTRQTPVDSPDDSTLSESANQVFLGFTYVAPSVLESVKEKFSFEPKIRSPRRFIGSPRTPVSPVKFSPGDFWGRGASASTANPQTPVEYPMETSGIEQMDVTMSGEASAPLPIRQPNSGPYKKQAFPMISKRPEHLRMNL

No constants are given. Whether binding was seen depends on the method and setting. In cells and extracts the contact can be indirect. Some results given as binding are weak or reduced against the parent protein; the word gives no strength.

For the substance “4E-BP1 (endogenous, GH3 cells) (from UniProt Q62622 1-117)”, the binding entry in test [1] is “binds”. Flag-S6K1 (from UniProt P23443 1-525): the binding entry in test [2] and in test [3] was “binds” in each case.

Source of the values: paper PMC6218470.
